According to patent publication US10689415B2, “Conjugates of RGD peptides and (bacterio)chlorophyll photosensitizers” (YEDA RESEARCH AND DEVELOPMENT COMPANY LTD., priority 2006, dated 2020):
“Also recorded” adds a separate entry of the source. Counter-ions that a name gives are not always drawn. At least one structure is not confirmed: it was looked up by name or label, or the drawing left a doubt.

Protein sequences, listed by entry. Tags and fused reporters are not part of them. Residues count along the entry.
UniProt P02768, 25-609: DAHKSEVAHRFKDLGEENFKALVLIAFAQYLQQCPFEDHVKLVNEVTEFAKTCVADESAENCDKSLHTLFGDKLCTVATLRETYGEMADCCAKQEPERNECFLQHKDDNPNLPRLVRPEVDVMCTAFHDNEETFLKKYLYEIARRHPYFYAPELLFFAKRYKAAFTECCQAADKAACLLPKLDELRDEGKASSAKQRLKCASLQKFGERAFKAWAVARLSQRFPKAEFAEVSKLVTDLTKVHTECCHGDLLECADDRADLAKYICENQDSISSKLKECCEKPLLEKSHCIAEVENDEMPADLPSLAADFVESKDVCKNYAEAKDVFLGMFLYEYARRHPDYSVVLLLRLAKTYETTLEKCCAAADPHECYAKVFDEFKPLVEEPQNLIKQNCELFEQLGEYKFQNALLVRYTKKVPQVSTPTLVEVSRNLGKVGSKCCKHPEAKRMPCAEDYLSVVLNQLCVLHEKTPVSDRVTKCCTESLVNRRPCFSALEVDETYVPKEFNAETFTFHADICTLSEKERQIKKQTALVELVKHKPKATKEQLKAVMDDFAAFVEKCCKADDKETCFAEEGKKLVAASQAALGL

What was measured:
[1] = system: H5V endothelial cells; experiment: Cellular uptake and localization by fluorescence microscopy; format: cell-based, mouse
[2] = system: rat C6 glioma xenografts; experiment: Whole-body NIR fluorescence imaging, rat C6 glioma xenografts; format: in vivo, CD-1 nude male mice; details: 140 nmol, 8.5 μmol cycloRGDfK one hour before, imaging 24 hours
Description: The in Vivo Optical Imaging System (IVISR100/XFO-12, Xenogen Corp., Alameda, Calif., USA) was used to acquire fluorescent images of the RFP-expressing tumors, as well as photosensitizers associated with tissues and organs after their intravenous (i.v.) infusion to the tested animals. The field-of-view was 15 cm. Two images were taken; the first image is black and white, providing a photograph of the animal. The second image is a colored overlay of the emitted photon data, in the present case the NIR fluorescence of the compound (680-720 nm excitation filter and a 780-810 nm emission filter) or bioluminescence (560 nm) as described below. […]
Dynamic fluorescence images were acquired immediately following the injection of a conjugate of the invention and continued for approximately 2 hours. Fluorescence images were also obtained under isoflurane anesthesia for up to 72 hr after initial injection of the conjugate. […]
Dynamic fluorescence images were obtained from CD-1 nude male mice bearing rat C6 glioma xenografts. The fluorescence images were acquired using IVIS system as described in Materials and Methods. […]
Specific binding is defined as one inhibited by the unconjugated sensitizer. […] Fluorescence images of the blocked receptor xenografts with the same exposure time are illustrated in FIG. 19 on the same linear color scale to allow for a qualitative comparison. […]

[3] = system: mouse CT26luc colon cancer grafts; experiment: Fluorescence and bioluminescence imaging, CT26luc colon cancer grafts; format: in vivo, CD-1 nude male mice
[4] = system: mouse 4T1luc mammary cancer grafts; experiment: Fluorescence and bioluminescence imaging, 4T1luc mammary cancer grafts; format: in vivo, BALB/c female mice; details: 200 nmol, 24 hours after injection
[5] = system: OVCAR-8, CT26luc, MLS and 4T1luc tumors; experiment: Fluorescence imaging of tumors differing in integrin αvβ3 expression; format: in vivo, CD1 nude mice; details: 24 h after administration
[6] = system: 4T1luc breast cancer metastases in the lungs; experiment: Fluorescence imaging of 4T1luc lung metastases; format: in vivo, BALB/c female mouse; details: 15 mg/kg, 24 h post injection
[7] = system: CT26luc lung metastases; experiment: Fluorescence imaging of CT26luc lung metastases; format: in vivo, CD-1 nude male mice; details: 15 mg/kg i.v.; 4, 9 and 24 h
[8] = system: CT26luc metastases in the lymph node; experiment: Fluorescence imaging of CT26luc lymph node metastases; format: in vivo, CD-1 nude male mouse; details: 15 mg/kg i.v., 24 hours
[9] = system: H5V endothelial cells; experiment: Phototoxicity assay (Neutral Red cell viability after illumination); format: cell-based, mouse; details: 2 hr, 37° C., DMEM/F12 with 10% FCS, 0-25 μM
[10] = system: rat C6 glioma; experiment: In vivo PDT (VTP) of rat C6 glioma; design: species or system CD-1 nude male mice; details: for comments (necrosis): 100 mW
[11] = system: CT26luc colon cancer; experiment: In vivo PDT (VTP) of CT26luc colon cancer; design: species or system CD-1 nude male mice
Procedure: CD-1 nude male mice bearing the different tumor xenografts were anesthetized and 24 (5-24 mg/kg body weight) or 8 (9 mg/kg body weight) were i.v. injected via the tail vein. The tumors were trans-cutaneously illuminated after 3.5, 6, 8, 12 and 24 hours for 5-30 min at light doses of 30-360 J/cm^2. Intensity of illumination: 100-200 mW/cm^2. After treatment, the mice were returned to the cage. The mice were considered cured if tumor free for 90 days after treatment. Mice were euthanized when the tumor diameter reached 15 mm. […] (5) Mixture of 8 and cycloRGDfK: the mice were i.v. injected with mixture of 8 with cycloRGDfK and illuminated after indicated time point. (6) cycloRGDfK alone: the mice were i.v. injected with cycloRGDfK and illuminated after indicated time point. Images were taken at indicated time post PDT.
FIGS. 32A-32F show the therapeutic results of applying 15 mg/kg, 10 min illumination (60 J/cm^2), 8 hours post injection of conjugate 24 to mice bearing CT26luc tumors (bolded protocol in Table 5). 32A—conjugate 24 was i.v. injected 15 mg/kg, 10 min illumination (60 J/cm^2) 8 hours post injection; 32B—overlaid images taken after i.p. injection of luciferin to the mouse described in 32A, using the IVIS system. The first image is black and white, which gives the photograph of the animal. The second image is color overlay of the emitted photon data. All images are normalized to the same scale. […] 32F—control with cycloRGDfK alone: the mice were i.v. injected with cycloRGDfK and illuminated after 8 hours. Images were taken at indicated time post PDT.

[12] = molecular target: HSA (Homo sapiens, UniProt P02768); experiment: Association constants of photosensitizers to HSA (spectroscopic titration); format: binding
[13] = 8 hrs, 9 mg/kg, 10 min, 100 mW, 60 J/cm^2
[14] = 8 hrs, 9 mg/kg, 15 min, 100 mW, 90 J/cm^2
[15] = 8 hrs, 11 mg/kg, 10 min, 100 mW, 60 J/cm^2
[16] = 8 hrs, 12 mg/kg, 10 min, 100 mW, 60 J/cm^2
[17] = 8 hrs, 15 mg/kg, 10 min, 100 mW, 60 J/cm^2
[18] = 12 hrs, 15 mg/kg, 15 min, 100 mW, 90 J/cm^2
[19] = 24 hrs, 15 mg/kg, 30 min, 100 mW, 180 J/cm^2
[20] = 24 hrs, 15 mg/kg, 30 min, 200 mW, 360 J/cm^2
[21] = 24 hrs, 24 mg/kg, 30 min, 100 mW, 180 J/cm^2
[22] = 24 hrs, 24 mg/kg, 30 min, 150 mW, 270 J/cm^2
[23] = 24 hrs, 24 mg/kg, 30 min, 200 mW, 360 J/cm^2

`CC[C@H]1c2cc3[nH]c(c(CC(=O)OC)c4nc(cc5[nH]c(cc(n2)[C@@H]1C)c(C(C)=O)c5C)[C@@H](C)[C@@H]4CCC(=O)NCCCC[C@@H]1NC(=O)[C@@H](Cc2ccccc2)NC(=O)[C@H](CC(=O)O)NC(=O)CNC(=O)[C@H](CCCNC(=N)N)NC1=O)c(C(=O)NCCS(=O)(=O)O)c3C` [Conjugate 24, Palladium 3^1-oxo-15-methoxycarbonylmethyl-Rhodobacteriochlorin 13^1-(2-sulfoethyl)amide-17^3-(cycloRGDfK)amide potassium salt] was tested, and the “cellular uptake compared with compound 8” value ([1]; 25 μM, 10% or 75% FCS, 20 minutes or 2 hours, potassium salt) was “faster than that of compound 8; also recorded: higher in vitro accumulation of conjugate 24 compared to compound 8 at each time point”, the “cellular uptake and localization” value ([1]; 25 μM, DMEM/F12 with 10% FCS, 2 hours, 37° C.) was “penetrated into endothelial cells and concentrated around the nucleus in granule-like structures” and the “effect of serum concentration on cellular uptake” value ([1]; 75% vs. 10% FCS) was “high serum concentrations (75% vs. 10% FCS) attenuate the cellular uptake”. For the same molecule, the “tumor uptake after pre-injection of excess free cycloRGDfK” value [2] was “blocked by pre-injection of cycloRGDfK in excess”, the “overlap of NIR fluorescence signal with tumor bioluminescence signal” value ([3]; 200 nmol, 24 hours after injection) was “complete overlap” and the “fluorescence intensity in the tumor site, RGD versus RAD conjugate” value ([3]; CT26luc grafts) was “clearly higher than that of the RAD conjugate in the tumor site”. The “overlap of NIR fluorescence signal with tumor bioluminescence signal” value [4] was “complete overlap”, the “fluorescence signal by tumor integrin αvβ3 status” value [5] was “significantly higher for integrin αvβ3 positive cells (MLS and 4T1luc) compared to integrin αvβ3 negative cells (CT26luc and OVCAR-8)” and the “uptake in metastatic regions in the lungs” value [6] was “can be monitored by fluorescence at relatively high accuracy”. The “uptake in metastatic regions versus normal tissue” value [7] was “significantly higher than by the surrounding normal tissue regions”, the “detection of lymph node metastases” value [8] was “Detection of the CT26luc metastases in the lymph node was abled by localization of conjugate 24” and the phototoxic effects [9] was “light- and drug concentration-dependent”. The “comments (necrosis)” value ([10]; 3.5 hours to treatment, 15 mg/kg, 5 min, 30 J/cm^2) was “Extensive”, the “comments (necrosis)” value ([10]; 6 hours, 15 mg/kg, 10 min, 60 J/cm^2) was “Extensive” and the “comments (necrosis)” value ([10]; 8 hours, 15 mg/kg, 5 min, 30 J/cm^2) was “Limited”. For the same molecule, the “comments (necrosis)” value ([10]; 8 hours, 15 mg/kg, 10 min, 60 J/cm^2) was “Limited”, the “comments (necrosis)” value ([10]; 8 hours, 15 mg/kg, 15 min, 90 J/cm^2) was “Extensive” and the “comments (necrosis)” value ([10]; 8 hours, 24 mg/kg, 10 min, 60 J/cm^2, potassium salt) was “Limited; also recorded: Extensive”. The “tumor response to PDT” value ([10]; conjugate and light, potassium salt) was “extensive edema few hours post PDT treatment that developed to inflammation and necrosis below the skin at 3 days post PDT; also recorded: Tumor flattening and long period of tumor regression as well as wound healing was observed”, the “comments (luminescence signal)” value [11, 13] was “Reduction in” and the “comments (necrosis)” value [11, 13] was “no necrosis*”. For the same molecule, the “comments (luminescence signal)” value [11, 14] was “Reduction in”, the “comments (necrosis)” value [11, 14] was “no necrosis” and the “comments (luminescence signal)” value [11, 15] was “Reduction in”. For the same molecule, the “comments (necrosis)” value [11, 15] was “extensive”, the “comments (luminescence signal)” value [11, 16] was “Reduction in” and the “comments (necrosis)” value [11, 16] was “extensive”. The “comments (luminescence signal)” value [11, 17] was “Reduction in”, the “comments (necrosis)” value [11, 17] was “extensive” and the “comments (luminescence signal)” value [11, 18] was “Reduction in”. For the same molecule, the “comments (necrosis)” value [11, 18] was “signal, limited”, the “comments (luminescence signal)” value [11, 19] was “Reduction in” and the “comments (necrosis)” value [11, 19] was “no necrosis”. For the same molecule, the “comments (luminescence signal)” value [11, 20] was “Reduction in”, the “comments (necrosis)” value [11, 20] was “no necrosis*” and the “comments (luminescence signal)” value [11, 21] was “Reduction in”. The “comments (necrosis)” value [11, 21] was “no necrosis”, the “comments (luminescence signal)” value [11, 22] was “Reduction in” and the “comments (necrosis)” value [11, 22] was “no necrosis”. The “comments (luminescence signal)” value [11, 23] was “Reduction in”, the “comments (necrosis)” value [11, 23] was “signal, limited” and the “association constants Ka(HSA)” value [12] was 0.09±0.04.
